The list shows a part of the results. The main result of the screen is listed elsewhere. These columns were measured beside it and carry no call. The list favours compounds with an active or inconclusive main result. The note in brackets gives the kind of curve behind each potency; many fits are weak.
Assay: qHTS Assay to Find Inhibitors of Chronic Active B-Cell Receptor Signaling
Details: ABC-DLBCL IkBa-CBG/CBR reporter, luminescence ratio (green luciferase fused to IkBa over red control in TMD8 lymphoma cells), 4 h
Outline: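 Concentration-response series (up to 46 uM) were applied to TMD8 dual-reporter cells for 4 h at 37C with doxycycline. Green/red ratio, after filter-overlap correction, defined %Activity; red signal alone was normalised to basal cells and zero luminescence.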

[1] = measured here: CBR red luminescence, cell number

Row | Compound | AC50 (measured here: IkBa-CBG green luminescence) | AC50 [1]
1 | COc1cc2c(cc1OC)C(C)N(C(C)=O)CC2 (centres undefined) | 23.1 µM [falling, partial curve, poor fit] | –
2 | COc1ccc(C2(C)NC(=O)NC2=O)cc1OC (centres undefined) | – | 5.62 µM [falling, single point]
3 | O=C(Nc1ccccc1)N1CC=C(c2ccc(F)cc2)CC1 | – | 29.1 µM [falling, single point]
4 | O=C(Nc1ccccc1)[C@@H]1[C@@H]2C(=O)N(c3ccc(F)cc3)C(=O)[C@@H]2[C@H]2C=CC=NN21 | – | 35.5 µM [falling, single point]
5 | CC1(C)Cc2c(sc(NC(=O)C(=O)N3CCCCC3)c2C(=O)O)CO1 | – | 35.5 µM [rising, partial curve, poor fit]
6 | O=C(OCC(=O)N1CCN(C(=O)c2ccco2)CC1)c1c(Cl)cccc1Cl | – | 2.06 µM [rising, full curve, poor fit]
7 | COc1ccc2oc(C(=O)OCC(=O)N3CC(C)CC(C)C3)c(C)c2c1 (centres undefined) | – | 0.651 µM [falling, partial curve]
8 | COC(=O)[C@@H]1CCCN1C(=O)CCc1nnc(CCC2CCCCC2)o1 | – | 0.316 µM [rising, full curve]
9 | O=c1cc(-c2c(F)c(F)c(F)c(F)c2F)oc2c(F)c(F)c(F)c(F)c12 | – | 7.94 µM [falling, partial curve]
10 | Cc1ccc2c(c1)c1c3n2CCN(C(=O)CN2CCN(C)CC2)C3CCC1 (centres undefined) | – | 15.8 µM [falling, single point]
11 | N#CC1CCCc2c1[nH]c1ccc([N+](=O)[O-])cc21 (centres undefined) | – | 1.12 µM [rising, full curve, poor fit]
12 | CCC(C)NC(=S)Nc1ccc(C(=O)OC)cc1 (centres undefined) | – | 14.1 µM [falling, single point]
13 | Cn1c(SCC(=O)Nc2ccccc2F)nnc1-c1cc2ccccc2o1 | – | 3.66 µM [rising, partial curve]
14 | COC(=O)c1cc(-c2ccc(C)cc2)n[nH]1 | – | 1.26 µM [rising, full curve, poor fit]
15 | COc1ccc(-c2nc(S(=O)(=O)c3ccccc3)c(N3CCOCC3)o2)cc1 | – | 0.0184 µM [rising, full curve, poor fit]
16 | CCCN(CCC)CC(O)Cn1cc(/C=C/C(=O)c2ccccc2)c2ccccc21 (centres undefined) | – | 35.5 µM [falling, single point]
17 | NC(=S)COc1ccccc1 | – | 6.31 µM [rising, single point]
18 | O=C(O)c1cccc(Nc2c3ccccc3nc3ccccc23)c1 | – | 28.2 µM [falling, single point]
19 | CC(C)(C)C1CCC2(CC1)C(C#N)=C(SCC(=O)NC1CCCCC1)NC(=O)C2C#N (centres undefined) | – | 35.5 µM [falling, single point]

One compound at a time, from the list above. Order of values: AC50 (measured here: IkBa-CBG green luminescence)	AC50 [1]
COc1ccc2oc(C(=O)OCC(=O)N3CC(C)CC(C)C3)c(C)c2c1 (centres undefined) as listed: –	0.651 µM [falling, partial curve]
CCC(C)NC(=S)Nc1ccc(C(=O)OC)cc1 (centres undefined) as listed: –	14.1 µM [falling, single point]

— PubChem BioAssay AID493014 (National Center for Advancing Translational Sciences (NCATS), 2011)
